This note sets out measurements from PubChem BioAssay AID2685 (National Center for Advancing Translational Sciences (NCATS), 2010).

The list shows a part of the results. These are further read-outs of the screen, such as a control signal, another cell line or another target. No call is given for them. The list favours compounds with an active or inconclusive main result. Potencies come from curve fits of mixed quality, noted in brackets.

The assay in a line: qHTS Assay for Lipid Storage Modulators in Drosophila S3 Cells.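 For cell number change: cells counted by Cell Tracker Red CMTPX staining in the red channel.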 Conditions: BODIPY lipid droplet fluorescence, 18-24 h; for cell number change: measured here: cell count max response, cells fed with added oleic acid. The procedure, abridged:
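Drosophila S3 cells got compounds at several concentrations plus oleic acid (400 uM solution). Laser-scanning cytometry with 488 nm excitation read lipid droplets at 500-530 nm and cells at 575-640 nm. Percent activity was relative to 20 uM Triacsin C.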
Background: In qHTS, concentration-response curves come from the screen itself.

[1] abbreviates: measured here: cell number channel AC50, cells fed with added oleic acid.
Setting [2] is: measured here: lipid fluorescence (Fed channel) AC50, cells fed with added oleic acid.

A word on the AC50: it is the midpoint of the concentration-response curve, whichever way the signal moves. High values mean weaker potency, low ones greater potency. For the molecule `COCCn1c(SCc2ccccc2F)nc2ccccc2c1=O`, the cell number change came to 58.8%. The AC50 under setting [1] is 20.6 µM [rising, single point]. Moreover, the AC50 under setting [2] is 23.1 µM [rising, single point]. With `CCCCCC(=O)Nc1nc(C)c(-c2csc(Nc3ccccc3OC)n2)s1`, the cell number change is -30.6%. Moreover, the AC50 under setting [1] was 7.31 µM [falling, partial curve]. As to `CCCn1c(SCC(=O)c2ccc3c(c2)NC(=O)CO3)nc2ccccc21`, the cell number change is -18.5%. The AC50 under setting [2] is 14.6 µM [falling, partial curve, poor fit]. As for `CN(Cc1nc(-c2cccnc2)no1)S(=O)(=O)c1ccc2ccccc2c1`, the cell number change is -2.39%. Further, under setting [2], the AC50 was 0.651 µM [rising, full curve]. `COc1cc(OC)cc(-c2c(-c3cccs3)c3cc(-c4ccn[nH]4)ccc3n2C)c1`: the cell number change was -7.83%. Besides, the AC50 under setting [2] is 0.291 µM [rising, partial curve]. Regarding `COc1cc(/C=N\NC(=O)c2ccc(-c3ccccc3)cc2)cc(OC)c1OC(C)=O`, the cell number change was -21.7%. As for `CC1(C)CC(=O)C2=C(C1)Nc1ccccc1NC2c1cc(Cl)ccc1O` (configuration not stated), the cell number change is -31.5%. Further, the AC50 under setting [1] is 9.2 µM [falling, single point]. In the case of `CCn1c(O)c(/C=N/N=C/c2ccccc2)c2ccc(C3=NNC(=O)CC3)cc21`, the AC50 reads like this: under setting [1], 1.3 µM [rising, partial curve]; under setting [2], 0.517 µM [rising, full curve, poor fit]. With `CC(/C=N/Nc1nc(C)cc(C)n1)=C\c1ccc(C(C)C)cc1`, the cell number change worked out at 38.3%. Under setting [1], the AC50 was 6.51 µM [rising, partial curve]. Also, under setting [2], the AC50 is 2.31 µM [rising, full curve]. In the case of `COC(=O)c1ccc(NC(=O)CSc2ccc(-c3ccccn3)nn2)cc1`, the cell number change is -5.65%. Moreover, under setting [2], the AC50 is 20.6 µM [rising, single point]. Turning to `Cc1nn(C)c(C)c1/C=N/O`, the cell number change was -2.12%.

On to `Cc1ccccc1Nc1nc(N)nc(COC(=O)CCS(=O)(=O)c2ccccc2)n1`, for which, under setting [2], the AC50 is 2.06 µM [rising, full curve, poor fit].

Turning to `CCn1c(CNC(=O)c2ccc(Cl)cc2)nnc1SCC(=O)NC1=NCCS1`, the cell number change is 17.9%. On the same count and under the same terms, then `COc1ccc(NC2CC(=O)N(c3ccc(C(=O)O)cc3)C2=O)cc1` (configuration not stated), with 0.601%. For the molecule `CCOC(=O)C1CCN(C(=O)c2cccc(S(=O)(=O)N(C)C3CCCCC3)c2)CC1`, under setting [2], the AC50 is 0.092 µM [falling, full curve, poor fit]. Consider `O=C(Nc1ccccc1F)c1ccc2c(c1)CCN2S(=O)(=O)c1ccccc1`, for which the cell number change was 7.03%. Also, the AC50 under setting [2] was 6.51 µM [falling, single point]. As for `CCSc1nccc(-c2nn(-c3ccc(C)cc3)ccc2=O)n1`, the cell number change was determined as 30.2%. Also, the AC50 under setting [1] was 0.651 µM [rising, full curve]. The AC50 under setting [2] was 4.11 µM [rising, full curve].

For the molecule `N#C/C(=C(/O)c1ccc([N+](=O)[O-])cc1)c1nc2ccccc2[nH]1`, the cell number change was determined as 46.9%. Besides, the AC50 under setting [1] was 16.4 µM [rising, partial curve]. Besides, the AC50 under setting [2] was 29.1 µM [rising, single point]. On to `Cc1ccc(Cl)cc1N1CCN(C2CCCCC2NS(=O)(=O)c2ccccc2)CC1` (configuration not stated), for which the cell number change amounted to 7.34%. The AC50 under setting [1] is 4.11 µM [rising, single point]. Consider `Cc1cccc(OCC(=O)N(Cc2ccc(F)cc2)C2CCS(=O)(=O)C2)c1C` (configuration not stated), for which the cell number change was found to be 5.37%. For the same molecule, under setting [2], the AC50 is 0.731 µM [rising, single point]. Take `Nc1nc(Nc2cccc(C(F)(F)F)c2)nc(C(F)(F)F)n1`: the cell number change is -45%. Under setting [1], the AC50 is 13 µM [falling, partial curve]. Moreover, under setting [2], the half-maximal activity concentration (AC50) is 13 µM [falling, partial curve]. On to `Cc1cc(=O)oc2cc(OCC(=O)N3CCN(c4ccccc4)CC3)ccc12`, for which the cell number change worked out at 0.622%. Consider `CCOc1ccc(CCNC(=O)COC(=O)Cn2cnc3ccccc3c2=O)cc1OCC`, for which the cell number change was found to be 17.1%. Moreover, the AC50 under setting [2] is 0.0731 µM [rising, full curve, poor fit]. As to `O=S(=O)(O)c1nc2ccccc2n1Cc1cccc2ccccc12`, the cell number change is 28.4%. In addition, the AC50 under setting [2] is 29.1 µM [rising, single point].

For `CCOc1ccc(CN(Cc2ccco2)S(=O)(=O)c2ccc(-n3cnnn3)c(OC)c2)cc1`, the cell number change came out at 25.8%. In addition, the AC50 under setting [1] is 2.31 µM [rising, full curve, poor fit]. With `Cc1ccc(C(=O)NC(=S)N2CCN(C)CC2)cc1Br`, the cell number change is -0.829%. For the same molecule, the AC50 under setting [2] was 11.6 µM [rising, partial curve]. Take `COc1ccc(-c2cc(C)no2)cc1S(=O)(=O)N1CCN(C(=O)c2ccco2)CC1`: the AC50 under setting [2] was 14.6 µM [rising, partial curve].

As to `COc1ccc(NC(=O)CN(c2ccccc2)S(=O)(=O)c2ccccc2)c(OC)c1`, the cell number change is -20%. Still for that read-out and setting: with `S=C(NCc1ccccc1)N1CCN(C2CCCCC2)CC1` the figure was 13.6%. On to `Cc1cccc(N2CN(Cc3cccnc3)CNC2=S)c1C`, for which the cell number change was found to be 10.3%. The AC50 under setting [2] was 0.82 µM [rising, full curve, poor fit].

For `O=C(N1CCOCC1)N1CCN(Cc2ccccc2)CC1`, the cell number change is -8%. Besides, the AC50 under setting [2] is 32.6 µM [falling, single point]. For the molecule `CN(Cc1ccccc1)S(=O)(=O)c1nnc(NC(=O)c2ccccc2F)s1`, the cell number change is -37.6%. Moreover, the AC50 under setting [1] is 29.1 µM [falling, single point].

For `COc1ccc(CNC(=O)C2CCCN(S(=O)(=O)N3CC(C)CC(C)C3)C2)c(OC)c1` (configuration not stated), the AC50 is, setting by setting: under setting [1], 6.51 µM [rising, single point]; under setting [2], 29.1 µM [falling, single point]. `Cc1ccc(C(CNC(=O)Nc2ccc(Cl)cc2)N2CCN(C)CC2)cc1` (configuration not stated): the AC50 under setting [2] is 0.58 µM [rising, single point]. Consider `Cc1oc(-c2ccccc2Cl)nc1CS(=O)(=O)CC(=O)NC(C)c1ccccc1` (configuration not stated), for which the cell number change was 3.75%. Regarding `Cc1ccccc1Cn1c2ccccc2c2cnn(CC(=O)N3CCN(c4ccccc4)CC3)c(=O)c21`, under setting [2], the AC50 is 0.58 µM [falling, single point]. As for `CS(=O)(=O)N1CCN(C(=O)c2ccc3c(c2)OCCO3)CC1`, the cell number change was -2.64%. The AC50 under setting [2] is 29.1 µM [rising, single point]. For the molecule `Cc1ccc(-c2csc3ncnc(Nc4ccc(N5CCOCC5)cc4)c23)cc1`, the cell number change was -7.28%. Under setting [1], the AC50 is 0.103 µM [falling, full curve, poor fit]. Moreover, the AC50 under setting [2] is 0.116 µM [falling, full curve, poor fit]. For the molecule `COc1cccc(S(=O)(=O)NCc2ccc(C(=O)N3CCN(Cc4ccccc4)CC3)cc2)c1`, the cell number change is -16.7%. As to `CC(OC(=O)c1ccccc1C(=O)N(C)c1ccccc1)C(=O)Nc1ccc(C(N)=O)cc1` (configuration not stated), the cell number change worked out at 2.72%. The AC50 under setting [2] was 7.31 µM [falling, single point].

Turning to `CCOc1ccccc1/C=C/C(=O)NCC(=O)N1CCC(N(C)C2CCCCC2C)CC1` (configuration not stated), the cell number change came to 31.7%. For the same molecule, under setting [1], the AC50 was 8.2 µM [rising, partial curve, poor fit]. Under setting [2], the AC50 was 0.103 µM [falling, single point].

For the molecule `COc1ccc(N2C(=O)CSC23C(=O)N(CC(=O)NC2CCCC2)c2ccccc23)cc1` (configuration not stated), the cell number change stood at 0.382%. Also, the AC50 under setting [2] is 6.51 µM [rising, single point]. Regarding `COC(=O)c1sc(S(=O)(=O)Nc2ccc(C)c(C)c2)c(C(=O)OC)c1C`, the cell number change turned out to be 10.4%. For the same molecule, under setting [2], the AC50 is 5.8 µM [falling, single point]. On to `CCOC(=O)C1=C(C)N(C)C(C)=C(C(=O)OCC)C1c1ccc(Cl)cc1`, for which the cell number change was determined as 4.44%. Moreover, the AC50 under setting [1] was 3.26 µM [falling, partial curve]. On to `Cc1ccc(/C=N/n2c(-c3cccnc3)n[nH]c2=S)s1`, for which the cell number change was found to be 15.4%. For the same molecule, the AC50 under setting [1] was 3.26 µM [rising, single point]. On to `Cc1ccc(C)c(N2C(=O)c3ccc(C(=O)OCC(=O)c4c(N)n(C)c(=O)n(C)c4=O)cc3C2=O)c1`, for which the cell number change is 16.3%. In addition, under setting [1], the AC50 is 6.51 µM [rising, single point]. Consider `O=C(CCCNC(=O)/C(=C/c1ccccc1F)NC(=O)c1ccccc1)OCc1ccccc1`, for which the cell number change is -14.4%. Further, the AC50 under setting [2] was 29.1 µM [falling, single point].

With `CCOC(=O)c1c(C)[nH]c(C)c1C(=O)CSc1nnc(-c2ccco2)n1Cc1ccccc1`, the cell number change was -27.4%. As for `CCc1nc(SCC(=O)Nc2cc(C)ccc2OC)c2c(C)c(C)sc2n1`, the cell number change is -17.9%.

Consider `CCc1ccc(Nc2n[n+](-c3ccccc3)c(-c3ccc(OC)c(Br)c3)s2)cc1`, for which the cell number change worked out at 3.89%. In addition, the half-maximal activity concentration (AC50) under setting [2] was 6.51 µM [rising, single point]. On to `COc1ccc([C@H]2CC(=O)C=C(c3ccc(OC)cc3OC)C2)cc1`, for which the cell number change was -35.9%. The AC50 under setting [1] is 23.1 µM [falling, single point]. Further, the AC50 under setting [2] was 0.00461 µM [falling, full curve, poor fit]. For the molecule `CCC(C(=O)OCC(=O)Nc1c(Cl)cccc1Cl)c1ccccc1` (configuration not stated), the AC50 under setting [2] is 29.1 µM [rising, single point]. Consider `O=C(O)C1C(c2ccccc2)C(C(=O)Oc2ccc(O)cc2)C1c1ccccc1` (configuration not stated), for which the cell number change turned out to be 13.9%. As for `COc1ccc(CNCCC(c2ccc(OC(C)C)cc2)C(C)C)cc1OC` (configuration not stated), the cell number change was -48.1%. Besides, under setting [1], the half-maximal activity concentration (AC50) is 20.6 µM [falling, partial curve, poor fit]. Also, the AC50 under setting [2] was 16.4 µM [falling, partial curve]. `Cc1ccc(-n2nc(C)c3c(-c4cccs4)c(C#N)c(N)nc32)cc1`: the cell number change was -31.2%. Further, the AC50 under setting [1] is 6.51 µM [falling, partial curve]. For the same molecule, the AC50 under setting [2] was 13 µM [falling, single point]. In the case of `CC1CN(c2oc(-c3ccco3)nc2S(=O)(=O)c2ccccc2)CC(C)O1` (configuration not stated), the cell number change was 12.4%. Regarding `COc1ccc(NC(=O)CN(C)S(=O)(=O)c2ccccc2)cc1OC`, the cell number change is -1.52%. In addition, under setting [1], the AC50 was 6.51 µM [falling, single point]. `CN(CCCNC(=O)CCc1cn(C)c2ccccc12)C1CCCCC1`: the cell number change was -14.8%. For the same molecule, the AC50 under setting [2] is 29.1 µM [rising, single point]. Regarding `CCCc1c(OCCCOc2ccc(OCC(=O)O)cc2)ccc(C(C)=O)c1O`, the cell number change came out at 5.52%. Also, the AC50 under setting [2] was 8.2 µM [falling, partial curve, poor fit]. For the molecule `O=C(/C=C/c1ccc(Cl)cc1Cl)NC(=S)Nc1ccc(CN2CCOCC2)cc1`, the cell number change is -68.9%. Further, under setting [1], the AC50 is 14.6 µM [falling, partial curve]. Besides, the AC50 under setting [2] is 32.6 µM [falling, partial curve].
